Measured values published in doi:10.1101/2024.09.16.613291.

Tests used:
[1] = target: B55 loop-less (B55LL), residues 126-164 replaced with NG; assay: NMR titration
[2] = target: B55 subunit of the purified PP2A:B55 holoenzyme; assay: cryo-EM structure

binding [1]: binds | binding [2]: binds
B1: p107 interdomain region (residues 612-687) (domain or fragment, UniProt P28749 612-687)
chain: MPMSPLMHPRVKEVRTDSGSLRRDMQPLSPISVHERYSSPTAGSAKRRLFGEDPPKEMLMDKIITEGTKLKIAPSS

binding [1]: binds | binding [2]: binds
B2: Eya3 PP2A:B55 interaction domain (aa 62-108) with C-terminal EE (domain or fragment, UniProt Q99504 62-108)
chain: RSSNDYTSQMYSAKPYAHILSVPVSETAYPGQTQYQTLQQTQPYAVYEE

These are yes or no findings as the source states them, for the method shown. A result given as binding can be weak or reduced; the word gives no strength. One block for each binder: values may come before it.
